# Reference: US20220142990A1, “EXTERNAL PREPARATION FOR TREATING A VASCULAR ANOMALY” (OSAKA UNIVERSITY, priority 2019, published 2022)
# Experiment: Solubility of sirolimus in diethylene glycol monoethyl ether
# Format: physicochemical
# Conditions: solvent diethylene glycol monoethyl ether
# Text: Sirolimus or the sirolimus derivative is soluble in the diethylene glycol ether. Sirolimus dissolves well in the diethylene glycol monoethyl ether, and can be dissolved therein at up to 2.02 W/V %.
compound,measurement,value
"CO[C@H]1C[C@@H]2CC[C@@H](C)[C@@](O)(O2)C(=O)C(=O)N2CCCC[C@H]2C(=O)O[C@H]([C@H](C)C[C@@H]2CC[C@@H](O)[C@H](OC)C2)CC(=O)[C@H](C)/C=C(\C)[C@@H](O)[C@@H](OC)C(=O)[C@H](C)C[C@H](C)/C=C/C=C/C=C/1C [Sirolimus, sirolimus]",solubility in diethylene glycol monoethyl ether,up to 2.02 W/V %
